Results from US20070264340A1, “Aromachemicals” (Flexitral, Inc., priority 2006, published 2007).

Experiment: odour profile

Row | Structure (SMILES) | odour
1 | CC(C)=CCCC1(C)CC1CO (racemic) [racemic mixture of the cis compounds, [2-methyl-2-(4-methylpent-3-en-1-yl)cyclopropyl]methanol] | intense sweet rosy odour
2 | CC(C)=CCCC1(C)CC1CO (racemic) [racemic mixture of the trans compounds, [2-methyl-2-(4-methylpent-3-en-1-yl)cyclopropyl]methanol] | citrus odour with some rosy notes
